Experimental data published in paper PMC9579038.

Legend:
[1] = molecular target: FMNL2-BirA* (formin-like 2 fused to BirA*) (human); assay: proximity labelling; BioID screen with FMNL2-BirA* in HEK293T cells; SILAC-based quantitative mass spectrometry; filtered in silico for known background contaminants
[2] = molecular target: FMNL2-BirA* (formin-like 2 fused to BirA*) (human); assay: proximity labelling; FMNL2-BirA* transiently expressed in HEK293T/17 cells treated with biotin; biotinylated proteins isolated on streptavidin-agarose and immunoblotted for the endogenous proteins; FMNL2-mCherry cells as control

- binding [1]: binds
- binding [2]: binds
B1: IRTKS (BAIAP2L1), endogenous (protein, UniProt Q9UHR4 1-511)
chain: MSRGPEEVNRLTESTYRNVMEQFNPGLRNLINLGKNYEKAVNAMILAGKAYYDGVAKIGEIATGSPVSTELGHVLIEISSTHKKLNESLDENFKKFHKEIIHELEKKIELDVKYMNATLKRYQTEHKNKLESLEKSQAELKKIRRKSQGSRNALKYEHKEIEYVETVTSRQSEIQKFIADGCKEALLEEKRRFCFLVDKHCGFANHIHYYHLQSAELLNSKLPRWQETCVDAIKVPEKIMNMIEEIKTPASTPVSGTPQASPMIERSNVVRKDYDTLSKCSPKMPPAPSGRAYTSPLIDMFNNPATAAPNSQRVNNSTGTSEDPSLQRSVSVATGLNMMKKQKVKTIFPHTAGSNKTLLSFAQGDVITLLIPEEKDGWLYGEHDVSKARGWFPSSYTKLLEENETEAVTVPTPSPTPVRSISTVNLSENSSVVIPPPDYLECLSMGAAADRRADSARTTSTFKAPASKPETAAPNDANGTAKPPFLSGENPFATVKLRPTVTNDRSAPIIR

These are yes or no findings as the source states them, for the method shown. In cells and extracts the contact can be indirect. A yes stands for co-enrichment or nearness to the bait. Other partners may have been found.
